Laboratory results published in patent US8507498B2, “4, 6-disubstituted aminopyrimidine derivatives as inhibitors of protein kinases” (Ingenium Pharmaceuticals GmbH, priority 2007, dated 2013).
Some results were stated once for a whole list of compounds, not compound by compound.

The chains behind the UniProt entries cited, without tags or fusion partners. Where a name states a change or a piece, a line headed by the entry shows the natural chain unless it says otherwise.
UniProt P11802: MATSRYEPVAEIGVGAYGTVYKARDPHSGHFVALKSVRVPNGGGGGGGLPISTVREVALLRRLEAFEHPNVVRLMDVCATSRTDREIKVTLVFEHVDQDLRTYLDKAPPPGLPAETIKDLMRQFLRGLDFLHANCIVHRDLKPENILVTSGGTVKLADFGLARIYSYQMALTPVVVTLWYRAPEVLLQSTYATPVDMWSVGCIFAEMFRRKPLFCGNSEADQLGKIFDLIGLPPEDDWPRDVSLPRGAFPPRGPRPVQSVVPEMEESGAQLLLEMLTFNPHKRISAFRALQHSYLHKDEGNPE
UniProt Q00535, whole entry: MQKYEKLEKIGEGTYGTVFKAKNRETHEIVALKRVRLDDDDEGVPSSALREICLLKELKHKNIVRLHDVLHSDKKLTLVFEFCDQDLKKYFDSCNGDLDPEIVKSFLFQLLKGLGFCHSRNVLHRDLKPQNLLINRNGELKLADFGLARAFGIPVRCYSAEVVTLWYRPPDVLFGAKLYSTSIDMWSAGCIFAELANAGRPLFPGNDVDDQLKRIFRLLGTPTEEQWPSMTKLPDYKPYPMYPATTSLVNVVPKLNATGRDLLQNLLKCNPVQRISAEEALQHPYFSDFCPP
UniProt Q00534, whole entry: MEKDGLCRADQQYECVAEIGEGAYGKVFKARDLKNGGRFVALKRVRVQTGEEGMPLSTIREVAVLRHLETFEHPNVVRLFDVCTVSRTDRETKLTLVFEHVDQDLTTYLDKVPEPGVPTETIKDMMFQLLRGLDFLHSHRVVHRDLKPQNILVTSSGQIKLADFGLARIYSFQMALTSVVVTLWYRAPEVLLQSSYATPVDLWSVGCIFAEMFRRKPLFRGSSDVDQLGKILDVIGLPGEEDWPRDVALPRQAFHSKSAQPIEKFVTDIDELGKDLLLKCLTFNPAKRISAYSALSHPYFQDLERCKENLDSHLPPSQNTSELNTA
UniProt P50750, whole entry: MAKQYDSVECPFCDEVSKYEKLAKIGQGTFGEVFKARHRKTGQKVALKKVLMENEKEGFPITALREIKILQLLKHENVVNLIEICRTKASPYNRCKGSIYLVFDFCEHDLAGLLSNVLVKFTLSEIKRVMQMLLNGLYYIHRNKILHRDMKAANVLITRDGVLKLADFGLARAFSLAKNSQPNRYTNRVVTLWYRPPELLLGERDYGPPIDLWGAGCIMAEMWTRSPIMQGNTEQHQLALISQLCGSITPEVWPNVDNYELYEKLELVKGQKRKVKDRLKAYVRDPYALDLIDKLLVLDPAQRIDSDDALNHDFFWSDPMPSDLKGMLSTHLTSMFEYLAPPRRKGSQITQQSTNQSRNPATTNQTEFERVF

Columns and labels:
Test in all cases: In vitro kinase inhibition assay (33P FlashPlate)
Assay type in all cases: biochemical
CDK4/CycD1 = CDK4/CycD1 (Homo sapiens, UniProt P11802); set-up: host or cells: Sf9 insect cells (baculovirus); conditions: CDK4/CycD1, 1 μM ATP; bounds printed with units nM and μM
CDK5/p35NCK = biological target: T1, CDK5/p35NCK (Homo sapiens, UniProt Q00535); conditions: 1 μM ATP, bounds printed with units nM and μM
T1 construct: host or cells: Sf9 insect cells (baculovirus)

CDK6/CycD1 = biological target: T2, CDK6/CycD1 (Homo sapiens, UniProt Q00534); conditions: CDK6/CycD1, 1 μM ATP; bounds printed with units nM and μM
T2 construct: host or cells: Sf9 insect cells (baculovirus)

CDK9/CycT = biological target: T3, CDK9/CycT (Homo sapiens, UniProt P50750); conditions: 1 μM ATP, bounds printed with units nM and μM
T3 construct: host or cells: Sf9 insect cells (baculovirus)

Measured: IC50

NS(=O)(=O)Cc1cccc(Nc2cc(-c3ccccc3CO)ncn2)c1 [Compound 55, {3-[6-(2-Hydroxymethyl-phenyl)-pyrimidin-4-ylamino]-phenyl}-methanesulfonamide]
1 nM and 10000 nM: all assays above

CCOc1ccccc1-c1cc(Nc2cccc(CS(=O)(=O)NC3CCCC3)c2)ncn1 [Compound 13, N-Cyclopentyl-C-{3-[6-(2-ethoxy-phenyl)-pyrimidin-4-ylamino]-phenyl}-methanesulfonamide]
1 nM and 10000 nM: all assays above

COc1ccccc1-c1cc(Nc2cccc(CS(N)(=O)=O)c2)nc(N)n1 [Compound 66, {3-[2-amino-6-(2-methoxy-phenyl)-pyrimidin-4-ylamino]-phenyl}-methanesulfonamide]
1 nM and 10000 nM: all assays above

CS(=O)(=O)Cc1cccc(Nc2cc(-c3ccccc3OCC3CCCO3)ncn2)c1 (centres unmarked) [Compound 64, (3-methanesulfonylmethyl-phenyl)-{6-[2-(tetrahydro-furan-2-ylmethoxy)-phenyl]-pyrimidin-4-yl}-amine]
1 nM and 10000 nM: all assays above

COc1ccccc1-c1cc(Nc2cccc(CS(C)(=O)=O)c2)ncn1 [Compound 59, (3-Methanesulfonylmethyl-phenyl)-[6-(2-methoxy-phenyl)-pyrimidin-4-yl]-amine]
1 nM and 10000 nM: all assays above
